Data taken from article doi:10.1101/241208.
No constants are given. Whether binding was seen depends on the method and setting. Binding seen in cells or lysates may run through a third protein. For some of these results: A result given as binding can be weak or reduced; the word gives no strength. Sequences can lack the tags named with a protein.

T1: mycPex19 (mouse Pex19 cloned into pRK5-myc vector) (mouse) (UniProt Q8VCI5)
T1 sequence: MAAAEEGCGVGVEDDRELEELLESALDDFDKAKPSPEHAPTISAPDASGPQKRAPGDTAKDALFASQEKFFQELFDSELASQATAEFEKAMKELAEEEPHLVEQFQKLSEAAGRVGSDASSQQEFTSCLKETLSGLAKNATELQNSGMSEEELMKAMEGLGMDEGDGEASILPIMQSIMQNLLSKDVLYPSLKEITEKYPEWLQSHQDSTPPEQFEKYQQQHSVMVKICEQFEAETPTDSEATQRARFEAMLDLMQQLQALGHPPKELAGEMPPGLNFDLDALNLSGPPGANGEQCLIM

B1: mycPex19 (mouse Pex19 cloned into pRK5-myc vector) (protein, UniProt Q8VCI5-1 1-299)
chain: MAAAEEGCGVGVEDDRELEELLESALDDFDKAKPSPEHAPTISAPDASGPQKRAPGDTAKDALFASQEKFFQELFDSELASQATAEFEKAMKELAEEEPHLVEQFQKLSEAAGRVGSDASSQQEFTSCLKETLSGLAKNATELQNSGMSEEELMKAMEGLGMDEGDGEASILPIMQSIMQNLLSKDVLYPSLKEITEKYPEWLQSHQDSTPPEQFEKYQQQHSVMVKICEQFEAETPTDSEATQRARFEAMLDLMQQLQALGHPPKELAGEMPPGLNFDLDALNLSGPPGANGEQCLIM

Experiments:
Assay in all cases: co-IP
[1] = target: T1, mycPex19 (mouse Pex19 cloned into pRK5-myc vector) (mouse)
[2] = target: GFPEF1-EF2-GTP2 (Miro1 lacking the first GTPase domain)
[3] = target: GFPGTP1 (C-terminally anchored GTPase1 domain of Miro1)
[4] = target: GFPGTP2 (GTPase2 domain of Miro1)

Molecule | binding [1] | binding [2] | binding [3] | binding [4]
mycMiro1ΔTM (Miro1 lacking the transmembrane domain) (domain or fragment) | no binding | – | – | –
B1 | – | binds | binds | binds
